# PubChem BioAssay AID624297 (National Center for Advancing Translational Sciences (NCATS), 2012)
# Hit rate of the full screen: of about 340,000 compounds, about 6,200 (1.8%) were called active. The shares of active, inactive and inconclusive entries below differ from those in the screen. Calls follow the shape of the dose curve; as a rule, active = well fitted activation curve with a large enough effect; inconclusive = small, poorly fitted or top-dose-only effect; inactive = no such curve, though single readings can be large or run the other way. Potencies beside an inconclusive call are fits to weak or partial responses and may not hold up.
# Assay: A quantitative high throughput screen for small molecules that induce DNA re-replication in SW480 colon adenocarcinoma cells. Also: nearly all actives have a fitted effect of over 55% in size. As to re-replication activation: % of control where 0% means no effect.
# Settings: Hoechst DNA content imaging, 48 h; re-replication activation: at 46.1 µM (top of the series)
# How it was run: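 First, 250 cells per well were seeded. Next, compound or vehicle (23 nL) was pinned in, plates sat 48 hr at 37 C. Finally Hoechst was added for 40 min before fluorescence scanning.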
# Potency is read from the fitted curve at half-maximal effect.
SMILES,Potency,re-replication activation
CN(C)CCCNc1oc(-c2ccccc2Cl)nc1S(=O)(=O)c1ccc(F)cc1,"inconclusive: 16.4 µM [activator, partial curve, poor fit]",–
CCn1c(NCc2cc(Cl)ccc2O)nc2ccccc21,–,inactive: -7.47%
CC(=O)Nc1ccc(CN2CCN(CC=C(C)C)C(CCO)C2)cc1 (stereo not drawn),–,inactive: 0.434%
CC(C)(C)OC(=O)N(Cc1ccccc1)Cc1ccc(OCc2cccc(NC(=O)c3ccccc3)c2)cc1,"inconclusive: 16.4 µM [activator, single point]",–
COc1ccc(/C(O)=C2/C(=O)C(=O)N(CCCN3CCOCC3)C2c2ccc(N(C)C)cc2)cc1 (stereo not drawn),–,inactive: 1.9%
COc1ccc(OC)c(-c2cc(C(=O)Nc3c(C)n(C)n(-c4ccccc4)c3=O)no2)c1,–,inactive: 2.96%
ON=C1c2ccccc2-c2cc(Br)ccc21,–,inactive: 14.8%
COC(=O)C1=C(C)N(Cc2ccccc2)C(=NCCN2CCOCC2)N[C@H]1CCc1ccccc1,–,inactive: -10.3%
CCN1CCN(Cc2ccc(NC(=O)c3ccc(C)c(NC(=O)C[C@@H]4NC(=O)[C@H](Cc5ccccc5)NC4=O)c3)cc2C(F)(F)F)CC1,"inconclusive: 0.116 µM [activator, full curve, poor fit]",–
CC(=O)c1c(C)[nH]c(C(=O)N2CCN(c3cc(Cl)ccc3C)CC2)c1C,active: 9.2 µM,–
Cn1c(=O)cc(SCC(=O)N2CCN(c3ccccn3)CC2)c2ccccc21,–,inactive: -0.338%
Cc1ccc(OCc2nnc(SCC(=O)Nc3cccc4ccccc34)n2-c2ccccc2)cc1,–,inactive: 9.48%
COc1ccc(/C=C/C(O)=C2/C(=O)NC3(C)CC2c2ccccc2O3)c(OC)c1OC (stereo not drawn),"inconclusive: 18.4 µM [activator, single point]",–
CCc1nc(SCC(=O)Nc2ccc(N(C)C)cc2)n[nH]1,"inconclusive: 25.9 µM [activator, single point]",–
Cc1nc([N+](=O)[O-])c(C(=O)OCc2ccccc2Br)n1C,–,inactive: -9.08%
Cc1ccc(N(CC2=NCCN2)c2cccc(O)c2)cc1,"inconclusive: 29.1 µM [activator, single point]",–
CCCSc1nnc(NC(=O)Nc2ccc(F)cc2)s1,–,inactive: 5.28%
O=c1c2c([N+](=O)[O-])cc([N+](=O)[O-])cc2sn1-c1ccc(Br)cc1,"inconclusive: 23.1 µM [activator, partial curve, poor fit]",–
COc1cccc(OCC(O)CN2CCc3ccccc3C2)c1 (stereo not drawn),"inconclusive: 3.66 µM [activator, single point]",–
C=CC[C@@H](CC(=O)N(CCO)Cc1ccccc1)C(=O)N[C@@H](C)COC(=O)[C@@H](CC=C)Cc1ccc(F)cc1,–,inactive: -12.2%
CCOc1ccc(NC(=O)COn2nnc3ccc(S(=O)(=O)N4CCOCC4)cc32)cc1,"inconclusive: 7.31 µM [activator, single point]",–
CCOC(=O)C1=CN(Cc2cccc(I)c2)S(=O)(=O)N(C)C1C (stereo not drawn),"inconclusive: 20.6 µM [activator, single point]",–
COC(=O)[C@]1(Cc2ccccc2)N[C@H](CN(C)C(=O)Nc2ccc(C)cc2)[C@@H]2C(=O)N(C)C(=O)[C@@H]21,–,inactive: 24.1%

SMILES,Potency,re-replication activation
COc1ccc(/C=C/C(=O)C2CC2)cc1Cn1nc(C)c([N+](=O)[O-])c1C,"inconclusive: 16.4 µM [activator, single point]",–
C[C@@]12CCC=C[C@H]1[C@H](c1ccoc1)N(Cc1ccccc1)C2=O,"inconclusive: 0.146 µM [activator, partial curve, poor fit]",–
COc1ccc(-c2csc(/C(C#N)=C\c3ccc(OC)c([N+](=O)[O-])c3)n2)cc1,"inconclusive: 32.6 µM [activator, partial curve, poor fit]",–
O=C(Nc1ccc(S(=O)(=O)NCCc2ccccc2)cc1)c1ccncc1,"inconclusive: 18.4 µM [activator, single point]",–
Cc1ccc(OCC(=O)NNC(=S)NC(=O)c2cccs2)c(C)c1,–,inactive: -4.39%
Cc1nc(NC(=O)/C=C/c2ccccc2)sc1C(=O)Nc1ccccc1,"inconclusive: 18.4 µM [activator, single point]",–
CN(c1ccc(O)cc1)c1nc(-c2cccnc2)cs1,"inconclusive: 3.26 µM [activator, full curve, poor fit]",–
CNC(=O)c1cnn(-c2nc(-c3ccc(OC)cc3)cs2)c1C(F)(F)F,"inconclusive: 16.4 µM [activator, partial curve, poor fit]",–
CCOc1ccc(/C=C/C(=O)Nc2ccc(N3CCOCC3)cc2)cc1,"inconclusive: 29.1 µM [activator, partial curve, poor fit]",–
CC(=O)n1cc(N(C(=O)CCl)c2ccc(C)cc2)c2ccccc21,"inconclusive: 1.46 µM [activator, partial curve, poor fit]",–
CC(=NNC(=S)N1CC2CCC(CC2)C1)c1cnccn1,"inconclusive: 0.0041 µM [activator, full curve, poor fit]",–
Cc1cccc(OCCCC(=O)NNC(=O)c2ccccn2)c1,"inconclusive: 20.6 µM [activator, single point]",–
O=C(O)CCn1ccc2cc(S(=O)(=O)N3CCCCCC3)ccc21,–,inactive: 9%
COc1c(Cl)cc(C(=O)NN)cc1Cl,active: 13 µM,–
N/C(=N\OC(=O)N1c2ccccc2Sc2ccccc21)c1ccc(Br)cc1,"inconclusive: 29.1 µM [activator, single point]",–
COc1ccccc1N(C)S(=O)(=O)c1ccc(C(=O)NCc2ccccc2CN2CCCC2)cc1,"inconclusive: 29.1 µM [activator, single point]",–
CC(C)CCC(C)NC(=O)CN1C(=O)NC(C)(c2ccc3ccccc3c2)C1=O (stereo not drawn),–,inactive: 12.4%
COP(=O)(CN(Cc1ccccc1)C(=S)Nc1c(C)cccc1C)OC,"inconclusive: 4.11 µM [activator, full curve]",–
CCCn1nc(C(=O)OCC(=O)Nc2ccc(C)cc2)c2ccccc2c1=O,–,inactive: -8.18%
NNC(=O)c1ccc(Cn2cc(Cl)cn2)cc1,"inconclusive: 2.91 µM [activator, single point]",–
C=CCOc1cccc(/C=C2\C(=O)N(Cc3ccc(C)cc3)C(C)=C2C(=O)OC)c1,"inconclusive: 23.1 µM [activator, single point]",–
O=C(N/N=C/c1ccccc1Cl)c1[nH]c2ccc(Br)cc2c1-c1ccccc1,"inconclusive: 20.6 µM [activator, partial curve, poor fit]",–
COc1ccc(N=C2SC(C(=O)N3CCN(c4ccccc4)CC3)CC(=O)N2C)cc1 (stereo not drawn),–,inactive: 6.5%

# As entered above.
# Entry of C[C@@]12CCC=C[C@H]1[C@H](c1ccoc1)N(Cc1ccccc1)C2=O under Potency: inconclusive: 0.146 µM [activator, partial curve, poor fit]
# Entry of O=C(O)CCn1ccc2cc(S(=O)(=O)N3CCCCCC3)ccc21 under re-replication activation: inactive: 9%
# Entry of N/C(=N\OC(=O)N1c2ccccc2Sc2ccccc21)c1ccc(Br)cc1 under Potency: inconclusive: 29.1 µM [activator, single point]
# Entry of Cc1cccc(OCCCC(=O)NNC(=O)c2ccccn2)c1 under Potency: inconclusive: 20.6 µM [activator, single point]

# Further compounds follow.

SMILES,Potency,re-replication activation
O=C(NCc1ccco1)c1cc2cc(Br)ccc2o1,"inconclusive: 6.51 µM [activator, single point]",–
COc1ccccc1C(=O)Nc1ccc2c(c1)CN(C(=O)CSC)CC2,"inconclusive: 18.4 µM [activator, single point]",–
CC(C)(C)c1cc[n+](C2=C([O-])c3ccccc3C(=O)/C2=N\S(=O)(=O)c2cccs2)cc1,"inconclusive: 4.11 µM [activator, full curve, poor fit]",–
Cn1nc(C(C)(C)C)c([N+](=O)[O-])c1C(=O)N1CCOCC1,–,inconclusive: 82.4% [activator]
COc1ccc(C(C)(C)C)cc1NC(=O)C1CCCO1 (stereo not drawn),"inconclusive: 0.164 µM [activator, full curve, poor fit]",–
Cc1ccc(NC(=O)CSCc2cc(=O)n3cc(C)sc3n2)cc1,"inconclusive: 29.1 µM [activator, single point]",–
C#CCNC(=O)C1=C[C@@H](c2cn(C(C)=O)c3ccccc23)C[C@@H](OCc2ccc(CO)cc2)O1,"inconclusive: 2.59 µM [activator, full curve, poor fit]",–
O=C(Nc1c(Cl)cccc1Cl)C1CCN(C(=O)c2cccs2)CC1,–,inactive: -14.4%
O=C(Nc1ccncc1)c1cc(F)cc(F)c1,"inconclusive: 29.1 µM [activator, single point]",–
COC(=O)Oc1ccc(/C=N/NC(=O)CN(c2ccccc2Cl)S(C)(=O)=O)cc1OC,"inconclusive: 0.146 µM [activator, full curve, poor fit]",–
COCCCNCCOc1ccc(C(C)(C)c2ccccc2)cc1,"inconclusive: 29.1 µM [activator, single point]",–
c1ccc(-c2cccc(-c3ccccn3)n2)nc1,"inconclusive: 20.6 µM [activator, single point]",–
O=c1cc(/C=C/c2cccs2)[nH]c2ccccc12,"inconclusive: 29.1 µM [activator, single point]",–
CCN1CCN(C(=O)c2cc(COc3ccc4ncccc4c3)on2)CC1,–,inactive: -1.51%
O=C(OCCc1ccccc1)c1cc(O)c(O)c(O)c1,–,inactive: 16.2% [at 9.22 µM]
Cc1cc(NC(c2ccc(Cl)cc2)c2ccc3cccnc3c2O)no1 (stereo not drawn),"inconclusive: 3.66 µM [activator, full curve]",–
COc1ccc(/C=C/C(=O)Nc2ccc(-n3nncc3-c3ccccc3)cc2)cc1OC,–,inactive: -3.17%
CC(C)C12CN3CC(C(C)C)(CN(C1)C3(C)C)C2=O,–,inactive: -2.74%
COc1ccc(OC)c(Nc2ncnc3sccc23)c1,"inconclusive: 0.231 µM [activator, full curve, poor fit]",–
CNCC(=O)Nc1ccc(Cl)c(C(F)(F)F)c1,"inconclusive: 23.1 µM [activator, single point]",–
c1ccc(-c2cn3nc(-c4ccccc4)sc3n2)cc1,–,inactive: -1.95%
O=[N+]([O-])c1nn(-c2ccccc2)n(O)c1=NCCc1ccccc1,"inconclusive: 4.11 µM [activator, partial curve, poor fit]",–
